Assay results reported in PMC9281110.
These are yes or no findings as the source states them, for the method shown. Binding seen in cells or lysates may run through a third protein. Some entries that bind do so weakly or less than the wild type. Tags and fused reporters may be left off the sequences shown.

Amino acid sequences for entries named in this document (tags omitted).
UniProt P28290: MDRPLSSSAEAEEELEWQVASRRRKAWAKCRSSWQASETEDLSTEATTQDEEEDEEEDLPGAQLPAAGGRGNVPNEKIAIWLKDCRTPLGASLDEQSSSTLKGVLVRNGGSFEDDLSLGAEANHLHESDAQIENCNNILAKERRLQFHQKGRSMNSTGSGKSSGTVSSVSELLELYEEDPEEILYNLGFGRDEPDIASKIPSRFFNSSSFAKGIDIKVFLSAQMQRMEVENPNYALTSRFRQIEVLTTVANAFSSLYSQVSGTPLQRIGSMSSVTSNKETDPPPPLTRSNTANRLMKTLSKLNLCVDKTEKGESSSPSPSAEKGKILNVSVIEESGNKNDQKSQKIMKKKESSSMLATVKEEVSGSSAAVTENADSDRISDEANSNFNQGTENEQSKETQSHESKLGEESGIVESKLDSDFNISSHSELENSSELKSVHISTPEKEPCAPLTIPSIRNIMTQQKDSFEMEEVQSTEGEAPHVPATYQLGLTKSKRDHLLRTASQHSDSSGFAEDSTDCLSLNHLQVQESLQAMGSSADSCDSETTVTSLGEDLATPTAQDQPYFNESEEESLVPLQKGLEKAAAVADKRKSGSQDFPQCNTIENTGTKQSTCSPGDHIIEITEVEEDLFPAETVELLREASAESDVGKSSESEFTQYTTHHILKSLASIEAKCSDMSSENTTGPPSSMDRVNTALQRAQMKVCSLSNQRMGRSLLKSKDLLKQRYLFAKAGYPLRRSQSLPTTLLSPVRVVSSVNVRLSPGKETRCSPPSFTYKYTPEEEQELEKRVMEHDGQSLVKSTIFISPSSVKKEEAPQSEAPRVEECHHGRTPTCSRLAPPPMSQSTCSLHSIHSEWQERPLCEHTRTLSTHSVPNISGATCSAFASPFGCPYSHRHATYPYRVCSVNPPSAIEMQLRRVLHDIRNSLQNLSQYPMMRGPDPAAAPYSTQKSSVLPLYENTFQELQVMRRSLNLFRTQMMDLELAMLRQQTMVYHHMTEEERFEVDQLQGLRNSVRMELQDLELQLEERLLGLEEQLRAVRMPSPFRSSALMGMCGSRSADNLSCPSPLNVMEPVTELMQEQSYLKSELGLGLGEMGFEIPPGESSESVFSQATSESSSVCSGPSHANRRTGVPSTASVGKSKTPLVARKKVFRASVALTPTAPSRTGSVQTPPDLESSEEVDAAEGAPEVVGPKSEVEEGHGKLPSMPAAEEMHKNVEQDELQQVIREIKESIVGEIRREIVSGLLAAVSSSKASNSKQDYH

B1: GSTM3, endogenous in human testes (protein, UniProt P21266 1-225)
chain: MSCESSMVLGYWDIRGLAHAIRLLLEFTDTSYEEKRYTCGEAPDYDRSQWLDVKFKLDLDFPNLPYLLDGKNKITQSNAILRYIARKHNMCGETEEEKIRVDIIENQVMDFRTQLIRLCYSSDHEKLKPQYLEELPGQLKQFSMFLGKFSWFAGEKLTFVDFLTYDILDQNRIFDPKCLDEFPNLKAFMCRFEALEKIAAYLQSDQFCKMPINNKMAQWGNKPVC
B2: Myc-WT-GSTM3 (protein, UniProt P21266 1-225)
chain: B1 chain

Key:
[1] = molecular target: sperm specific antigen 2 (SSFA2), endogenous in human testes (human (endogenous in human testes)) (UniProt P28290); test: co-IP; endogenous proteins of human testes, lysed in RIPA buffer, antibody overnight at 4 °C, Protein A/G magnetic beads, immunoblot
Flag-WT-SSFA2 (human) = Flag-WT-SSFA2 (human) (UniProt P28290); test: co-IP; HEK293T cotransfected with Myc-WT-GSTM3 and Flag-WT-SSFA2 plasmids, RIPA lysate, Protein A/G magnetic beads, immunoblot (anti-Flag, anti-Myc)

Row | Binder | binding [1] | binding (Flag-WT-SSFA2 (human))
1 | B1 | binds | 
2 | B2 |  | binds
